{"source": "the supplement of paper PMC5949888", "note": "Most values lie at the floor of the assay. Slopes are relative: functional sequences can read slightly below zero.", "data": [{"system": "Saccharomyces cerevisiae PS128 hsf1 delta, HSF1(1-493) fusion", "experiment": "growth estimate (transactivation domain function in HSF1 fusion, heat-shock survival) (a.u. (slope of normalised read count over time)); higher = stronger growth at 37°C, i.e. more transactivation activity", "conditions": "library: random library", "values": [{"substance": "FGKWYGLNIRLSLRDKLHLP", "growth estimate": "< -0.25"}, {"substance": "KYPSPVVENILCVLPQHLVD", "growth estimate": "< -0.25"}, {"substance": "PSARVPCTTYVPSMAHSHRA", "growth estimate": "< -0.25"}, {"substance": "SAGDTAWLNCSQEQMSSCVP", "growth estimate": "< -0.25"}, {"substance": "QGTAIVKSAAPGGSWRSI", "growth estimate": "< -0.25"}, {"substance": "DGYVSRLNSRLIRLASGAWS", "growth estimate": "< -0.25"}, {"substance": "KDRHRESSYCFIKTRLVCHQ", "growth estimate": "< -0.25"}, {"substance": "MIIGQK", "growth estimate": "< -0.25"}, {"substance": "SSKTFISRR", "growth estimate": "< -0.25"}, {"substance": "EILL", "growth estimate": "< -0.25"}, {"substance": "KFLLDGARDYEDAWRENIDW", "growth estimate": -0.0382}, {"substance": "KSDPIAGFINERLTSKSAVR", "growth estimate": "< -0.25"}, {"substance": "VIGQQTRP", "growth estimate": "< -0.25"}, {"substance": "DCDYGGVCPDRFERSWTG", "growth estimate": "< -0.25"}, {"substance": "YDGGQSGLIKAEANDTGLHY", "growth estimate": "< -0.25"}, {"substance": "ISDDLGALLLSY", "growth estimate": "< -0.25"}, {"substance": "RYSYKWMEDWSTALRDSVRR", "growth estimate": "< -0.25"}, {"substance": "LFAVGRNDRYTWSFMGLYVC", "growth estimate": "< -0.25"}, {"substance": "CENCIRSRV", "growth estimate": "< -0.25"}, {"substance": "PCRRSLSCTATQAPES", "growth estimate": "< -0.25"}, {"substance": "SYAWDIPQALRLTVKPCALT", "growth estimate": "< -0.25"}, {"substance": "CHECVAEYF", "growth estimate": "< -0.25"}, {"substance": "SPKLGRIRAGLVQLSLIVGA", "growth estimate": "< -0.25"}, {"substance": "MDAWVLEAPIWPRRRHVAQG", "growth estimate": 0.0588}, {"substance": "FTTVRRVRSVESEDC", "growth estimate": "< -0.25"}, {"substance": "GMRLRYHIHSLFDSNRTTGL", "growth estimate": "< -0.25"}, {"substance": "EGTEIVVTVTMLATDFGLHR", "growth estimate": "< -0.25"}, {"substance": "ERTRQGYDP", "growth estimate": "< -0.25"}, {"substance": "GGPN", "growth estimate": -0.246}, {"substance": "RIGF", "growth estimate": "< -0.25"}, {"substance": "FPRDGNIGK", "growth estimate": "< -0.25"}, {"substance": "MRGILSVWLLTGVCVRFNYL", "growth estimate": "< -0.25"}, {"substance": "EYGVIRDVIWAGFTKHCYNR", "growth estimate": "< -0.25"}, {"substance": "GKISCWRLCRDGMAYAGYHN", "growth estimate": "< -0.25"}, {"substance": "NRAWIRTLVCLGAFLCAQLR", "growth estimate": "< -0.25"}, {"substance": "FSDQRESPSWEQVLPASSGE", "growth estimate": "< -0.25"}, {"substance": "GGI", "growth estimate": "< -0.25"}, {"substance": "YSS", "growth estimate": "< -0.25"}, {"substance": "HRHPFGRNHEGMPHV", "growth estimate": "< -0.25"}, {"substance": "FDNATFRFWKSCQLARSSLC", "growth estimate": "< -0.25"}, {"substance": "YYSVRIDRRAKRRISAGRYE", "growth estimate": "< -0.25"}, {"substance": "SNRATGAACAAAASGGPRWA", "growth estimate": "< -0.25"}, {"substance": "GQLQEIRGIKRCQYLRHTDY", "growth estimate": "< -0.25"}, {"substance": "KCSLKLGHWTQ", "growth estimate": -0.25}, {"substance": "EVRTQFWMLSSVAFRTVRLT", "growth estimate": "< -0.25"}, {"substance": "RPPLGRRFRPSERHETFEVA", "growth estimate": -0.209}, {"substance": "YVASKVLGC", "growth estimate": "< -0.25"}, {"substance": "FGGIPCVGHDAIREARGVL", "growth estimate": "< -0.25"}, {"substance": "SHMGLHTIEVGTDEYIIRRP", "growth estimate": "< -0.25"}, {"substance": "GLCKRNIHYGLR", "growth estimate": "< -0.25"}, {"substance": "FFAPQNGFMLLQIELACLRL", "growth estimate": "< -0.25"}, {"substance": "SSCCPRWIRSIQ", "growth estimate": "< -0.25"}, {"substance": "KEMHGAGATRELLSVSRDPI", "growth estimate": "< -0.25"}, {"substance": "LTFTRLMGCADNCKESCVPP", "growth estimate": "< -0.25"}, {"substance": "HQRGPSRIQGRRTVAWELFL", "growth estimate": "< -0.25"}, {"substance": "LDRPPCLISWPPGCTLPNIA", "growth estimate": "< -0.25"}, {"substance": "SCQARIWRILNQSEPCKSAS", "growth estimate": "< -0.25"}, {"substance": "SAF", "growth estimate": "< -0.25"}, {"substance": "GGLVVTGS", "growth estimate": "< -0.25"}, {"substance": "EHTKGANSKVGSGETVLKAS", "growth estimate": "< -0.25"}, {"substance": "ADLQKRCMDAIVLYRGRFAW", "growth estimate": -0.246}, {"substance": "WNPGSVYMGRQKNAKGKFLC", "growth estimate": "< -0.25"}, {"substance": "SFRSSRS", "growth estimate": "< -0.25"}, {"substance": "TLP", "growth estimate": "< -0.25"}, {"substance": "DDILDTLVSVGYRIYG", "growth estimate": "< -0.25"}, {"substance": "HQGCSSEELGVKAGIHALRC", "growth estimate": "< -0.25"}, {"substance": "LREYAGVWSSLGWQIMAPLL", "growth estimate": "< -0.25"}, {"substance": "TRYQTLLEVIE", "growth estimate": "< -0.25"}, {"substance": "YWDIIRNRIRLRT", "growth estimate": "< -0.25"}, {"substance": "PYPL", "growth estimate": "< -0.25"}, {"substance": "LPELRRSVGPRWANSFSV", "growth estimate": -0.245}, {"substance": "TLEGGSQNYTTQPVA", "growth estimate": "< -0.25"}, {"substance": "HIVRAGEAGDILPAGPDCIL", "growth estimate": "< -0.25"}, {"substance": "FRGVFGTQTAYSLRPDNTR", "growth estimate": "< -0.25"}, {"substance": "LSNMAGAICVTPRPTRLCSG", "growth estimate": "< -0.25"}, {"substance": "SVSFSRG", "growth estimate": "< -0.25"}, {"substance": "AEIQLAAGRLQNHRLATRMG", "growth estimate": "< -0.25"}, {"substance": "LVANSAQGSGRNGIGGVRMT", "growth estimate": "< -0.25"}, {"substance": "DGSFTRGRGCRRP", "growth estimate": "< -0.25"}, {"substance": "DFGVRVVGLQRCLRLRQRYW", "growth estimate": "< -0.25"}, {"substance": "EPRRSA", "growth estimate": "< -0.25"}, {"substance": "LLERQLREWLEVKVRRTNWV", "growth estimate": "< -0.25"}, {"substance": "RLTPFCIEGWARKPRIADID", "growth estimate": "< -0.25"}, {"substance": "LRIVGGVHDAS", "growth estimate": "< -0.25"}, {"substance": "HVSEVTVISSISVALDL", "growth estimate": "< -0.25"}, {"substance": "CGSGVCPGIWAVRVWSRPDL", "growth estimate": "< -0.25"}, {"substance": "NRELNREHTRRKHLACKDAV", "growth estimate": "< -0.25"}, {"substance": "RDAKAHRRV", "growth estimate": "< -0.25"}, {"substance": "FCMRSRRGRGTRAK", "growth estimate": "< -0.25"}, {"substance": "RWLWSSDPGTYALTLVICRS", "growth estimate": "< -0.25"}, {"substance": "LSCVGFQLRSKTTFLARTVL", "growth estimate": "< -0.25"}, {"substance": "FWYWEDGASGWVYYSIR", "growth estimate": "< -0.25"}, {"substance": "ATCYCKRDL", "growth estimate": "< -0.25"}, {"substance": "SCELALARA", "growth estimate": "< -0.25"}, {"substance": "PAVMRGTESGRPLDITEDGH", "growth estimate": "< -0.25"}, {"substance": "PHSLLHNHPCVDLVGY", "growth estimate": "< -0.25"}]}]}
